Measured values reported in US9561276B2, “Method of treating onychomycosis” (DUSA PHARMACEUTICALS, INC., priority 2012, dated 2017).
For at least one compound, name, drawing or mass did not settle the structure.

Tests used:
[1] = system: onychomycosis of the toenail; assay: ALA-based PDT of onychomycosis with 10 day delay before red light (Example 1); settings: after 5 percent ALA, 100 Joules/cm^2 red light, nail outgrowth
Method: A 5 percent ALA solution was prepared by dilution of 20 percent ALA Topical Solution (Levulan® Kerastick® (aminolevulinic acid HCl) for Topical Solution, 20%). The ALA solution was then applied to a healthy volunteer suffering from mild to moderate onychomycosis involving the hallux (proximal or big toe) toenail and the second toenail of the left foot. The ALA solution was applied liberally to the nail surface and the periungual skin areas. The entire toe was wrapped in an occlusive dressing (Tegaderm®) for 12 hours. Twenty-four hours post ALA application, the treated area was examined for porphryin fluorescence using a long wave UV light (Wood's Light) as an excitation source.
The subject was instructed to avoid light exposure to the treated toes. Fluorescence evaluation was performed again 10 days post ALA application.
The subject was then treated with 100 Joules/cm^2 of red light using the Sciencetech 7500 illuminator, causing an activation reaction.
The subject was again instructed to avoid light exposure to the treated toes. Follow up evaluations were performed 5 and 20 days post light treatment (15 and 30 days post ALA application).

[2] = system: onychomycosis of the toenail; settings: photoactivating light four hours after ALA application; cited from earlier work

SMILES: NCC(=O)CCC(=O)O [ALA, aminolevulinic acid]
- outcome of treated nails (resolution of onychomycosis) [1]: clear of all discoloration, thickening or fungal infection
- resolution of the fungal infection [2]: success in resolving the fungal infection
